According to US5120828A, “Synthetic polypeptide with laminin activity” (Regents of the University of Minnesota, priority 1989, dated 1992):
Part of at least one peptide drawing is inferred or uncertain, most often the ends. No end group written: not given here.

Protein sequences, listed by entry. Tags and fused reporters are not part of them. Residues count along the entry.
UniProt P02468, 34-1607: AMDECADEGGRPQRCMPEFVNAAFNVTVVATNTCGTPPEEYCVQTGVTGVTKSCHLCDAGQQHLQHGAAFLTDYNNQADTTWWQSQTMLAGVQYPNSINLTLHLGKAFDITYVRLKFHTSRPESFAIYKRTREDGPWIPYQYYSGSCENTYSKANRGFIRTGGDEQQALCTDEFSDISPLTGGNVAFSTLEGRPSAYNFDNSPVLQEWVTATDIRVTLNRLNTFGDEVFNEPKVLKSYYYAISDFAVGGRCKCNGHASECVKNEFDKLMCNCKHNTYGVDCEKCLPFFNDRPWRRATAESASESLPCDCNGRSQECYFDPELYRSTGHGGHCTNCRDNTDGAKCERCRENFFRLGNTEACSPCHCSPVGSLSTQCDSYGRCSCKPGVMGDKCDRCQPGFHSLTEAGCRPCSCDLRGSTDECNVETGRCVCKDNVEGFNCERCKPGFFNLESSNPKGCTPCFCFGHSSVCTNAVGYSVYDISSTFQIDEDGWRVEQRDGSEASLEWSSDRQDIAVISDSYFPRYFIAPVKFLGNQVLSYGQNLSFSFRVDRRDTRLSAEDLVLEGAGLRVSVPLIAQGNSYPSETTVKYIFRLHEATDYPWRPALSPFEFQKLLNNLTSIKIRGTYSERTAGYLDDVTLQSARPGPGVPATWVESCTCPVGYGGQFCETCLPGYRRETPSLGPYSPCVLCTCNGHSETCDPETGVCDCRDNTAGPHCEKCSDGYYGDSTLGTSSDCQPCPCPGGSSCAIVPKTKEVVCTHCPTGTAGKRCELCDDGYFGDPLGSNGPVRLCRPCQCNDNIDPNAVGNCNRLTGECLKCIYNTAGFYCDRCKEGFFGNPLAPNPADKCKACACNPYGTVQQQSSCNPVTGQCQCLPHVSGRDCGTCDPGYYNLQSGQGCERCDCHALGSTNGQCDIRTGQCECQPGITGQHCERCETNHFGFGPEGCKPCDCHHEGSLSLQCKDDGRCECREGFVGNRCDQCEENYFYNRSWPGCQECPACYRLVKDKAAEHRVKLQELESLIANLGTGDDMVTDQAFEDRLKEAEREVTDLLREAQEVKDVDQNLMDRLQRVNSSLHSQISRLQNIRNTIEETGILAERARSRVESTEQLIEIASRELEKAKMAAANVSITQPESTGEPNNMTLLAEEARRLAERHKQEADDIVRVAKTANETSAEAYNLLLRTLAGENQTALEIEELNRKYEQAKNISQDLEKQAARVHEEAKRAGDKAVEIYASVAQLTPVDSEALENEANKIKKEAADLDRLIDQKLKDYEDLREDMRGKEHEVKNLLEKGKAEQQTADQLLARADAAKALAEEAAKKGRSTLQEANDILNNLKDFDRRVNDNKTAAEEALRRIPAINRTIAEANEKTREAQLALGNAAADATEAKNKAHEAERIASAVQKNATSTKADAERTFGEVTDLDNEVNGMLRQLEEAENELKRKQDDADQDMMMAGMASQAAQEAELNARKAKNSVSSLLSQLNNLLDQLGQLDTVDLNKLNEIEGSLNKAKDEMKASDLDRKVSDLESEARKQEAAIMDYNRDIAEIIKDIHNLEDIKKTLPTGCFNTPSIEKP
UniProt P02469, 22-1786: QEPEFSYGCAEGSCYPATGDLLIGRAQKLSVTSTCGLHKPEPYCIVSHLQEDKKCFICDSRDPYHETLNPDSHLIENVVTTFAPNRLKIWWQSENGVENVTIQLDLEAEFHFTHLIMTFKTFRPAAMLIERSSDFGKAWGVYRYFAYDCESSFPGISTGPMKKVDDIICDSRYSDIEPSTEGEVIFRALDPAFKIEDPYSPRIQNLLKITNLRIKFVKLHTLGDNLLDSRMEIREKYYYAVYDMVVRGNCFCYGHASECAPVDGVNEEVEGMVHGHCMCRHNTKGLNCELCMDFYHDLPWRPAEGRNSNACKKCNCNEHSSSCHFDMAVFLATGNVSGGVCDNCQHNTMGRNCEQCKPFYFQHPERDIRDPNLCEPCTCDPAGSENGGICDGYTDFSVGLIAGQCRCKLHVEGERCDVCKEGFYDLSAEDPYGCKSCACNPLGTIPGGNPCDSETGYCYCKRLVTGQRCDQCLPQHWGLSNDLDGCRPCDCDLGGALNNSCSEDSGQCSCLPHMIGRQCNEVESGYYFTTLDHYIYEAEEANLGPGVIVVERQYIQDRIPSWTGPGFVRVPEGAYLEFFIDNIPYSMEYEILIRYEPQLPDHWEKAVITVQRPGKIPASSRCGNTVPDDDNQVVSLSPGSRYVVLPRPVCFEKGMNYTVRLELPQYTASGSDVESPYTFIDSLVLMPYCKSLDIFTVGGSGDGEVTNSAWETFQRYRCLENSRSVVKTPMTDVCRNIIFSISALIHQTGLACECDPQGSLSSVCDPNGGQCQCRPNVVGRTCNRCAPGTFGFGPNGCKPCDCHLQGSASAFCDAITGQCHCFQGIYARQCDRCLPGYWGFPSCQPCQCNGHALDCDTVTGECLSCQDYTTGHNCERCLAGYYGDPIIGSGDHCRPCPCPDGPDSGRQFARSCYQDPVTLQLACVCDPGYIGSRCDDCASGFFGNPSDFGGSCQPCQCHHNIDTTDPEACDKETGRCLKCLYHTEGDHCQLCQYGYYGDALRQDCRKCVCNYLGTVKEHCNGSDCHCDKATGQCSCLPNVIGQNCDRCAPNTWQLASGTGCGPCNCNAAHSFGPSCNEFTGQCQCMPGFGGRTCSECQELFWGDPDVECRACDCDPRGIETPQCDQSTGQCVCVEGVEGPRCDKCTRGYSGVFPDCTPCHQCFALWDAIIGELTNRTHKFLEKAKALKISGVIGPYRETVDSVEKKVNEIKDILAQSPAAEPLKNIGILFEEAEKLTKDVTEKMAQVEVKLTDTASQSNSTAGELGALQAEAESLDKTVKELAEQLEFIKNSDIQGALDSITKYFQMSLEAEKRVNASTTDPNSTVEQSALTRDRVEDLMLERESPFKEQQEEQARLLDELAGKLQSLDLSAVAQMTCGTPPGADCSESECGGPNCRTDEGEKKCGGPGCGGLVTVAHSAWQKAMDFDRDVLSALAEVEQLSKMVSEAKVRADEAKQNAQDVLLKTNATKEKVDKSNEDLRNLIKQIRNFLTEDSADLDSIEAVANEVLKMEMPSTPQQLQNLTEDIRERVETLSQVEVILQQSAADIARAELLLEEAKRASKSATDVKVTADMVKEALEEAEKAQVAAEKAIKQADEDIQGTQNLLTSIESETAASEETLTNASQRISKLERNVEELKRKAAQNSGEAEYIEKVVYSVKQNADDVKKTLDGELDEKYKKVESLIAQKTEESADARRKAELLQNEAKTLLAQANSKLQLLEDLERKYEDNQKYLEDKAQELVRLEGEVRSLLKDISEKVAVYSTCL
UniProt P19137, 25-3083: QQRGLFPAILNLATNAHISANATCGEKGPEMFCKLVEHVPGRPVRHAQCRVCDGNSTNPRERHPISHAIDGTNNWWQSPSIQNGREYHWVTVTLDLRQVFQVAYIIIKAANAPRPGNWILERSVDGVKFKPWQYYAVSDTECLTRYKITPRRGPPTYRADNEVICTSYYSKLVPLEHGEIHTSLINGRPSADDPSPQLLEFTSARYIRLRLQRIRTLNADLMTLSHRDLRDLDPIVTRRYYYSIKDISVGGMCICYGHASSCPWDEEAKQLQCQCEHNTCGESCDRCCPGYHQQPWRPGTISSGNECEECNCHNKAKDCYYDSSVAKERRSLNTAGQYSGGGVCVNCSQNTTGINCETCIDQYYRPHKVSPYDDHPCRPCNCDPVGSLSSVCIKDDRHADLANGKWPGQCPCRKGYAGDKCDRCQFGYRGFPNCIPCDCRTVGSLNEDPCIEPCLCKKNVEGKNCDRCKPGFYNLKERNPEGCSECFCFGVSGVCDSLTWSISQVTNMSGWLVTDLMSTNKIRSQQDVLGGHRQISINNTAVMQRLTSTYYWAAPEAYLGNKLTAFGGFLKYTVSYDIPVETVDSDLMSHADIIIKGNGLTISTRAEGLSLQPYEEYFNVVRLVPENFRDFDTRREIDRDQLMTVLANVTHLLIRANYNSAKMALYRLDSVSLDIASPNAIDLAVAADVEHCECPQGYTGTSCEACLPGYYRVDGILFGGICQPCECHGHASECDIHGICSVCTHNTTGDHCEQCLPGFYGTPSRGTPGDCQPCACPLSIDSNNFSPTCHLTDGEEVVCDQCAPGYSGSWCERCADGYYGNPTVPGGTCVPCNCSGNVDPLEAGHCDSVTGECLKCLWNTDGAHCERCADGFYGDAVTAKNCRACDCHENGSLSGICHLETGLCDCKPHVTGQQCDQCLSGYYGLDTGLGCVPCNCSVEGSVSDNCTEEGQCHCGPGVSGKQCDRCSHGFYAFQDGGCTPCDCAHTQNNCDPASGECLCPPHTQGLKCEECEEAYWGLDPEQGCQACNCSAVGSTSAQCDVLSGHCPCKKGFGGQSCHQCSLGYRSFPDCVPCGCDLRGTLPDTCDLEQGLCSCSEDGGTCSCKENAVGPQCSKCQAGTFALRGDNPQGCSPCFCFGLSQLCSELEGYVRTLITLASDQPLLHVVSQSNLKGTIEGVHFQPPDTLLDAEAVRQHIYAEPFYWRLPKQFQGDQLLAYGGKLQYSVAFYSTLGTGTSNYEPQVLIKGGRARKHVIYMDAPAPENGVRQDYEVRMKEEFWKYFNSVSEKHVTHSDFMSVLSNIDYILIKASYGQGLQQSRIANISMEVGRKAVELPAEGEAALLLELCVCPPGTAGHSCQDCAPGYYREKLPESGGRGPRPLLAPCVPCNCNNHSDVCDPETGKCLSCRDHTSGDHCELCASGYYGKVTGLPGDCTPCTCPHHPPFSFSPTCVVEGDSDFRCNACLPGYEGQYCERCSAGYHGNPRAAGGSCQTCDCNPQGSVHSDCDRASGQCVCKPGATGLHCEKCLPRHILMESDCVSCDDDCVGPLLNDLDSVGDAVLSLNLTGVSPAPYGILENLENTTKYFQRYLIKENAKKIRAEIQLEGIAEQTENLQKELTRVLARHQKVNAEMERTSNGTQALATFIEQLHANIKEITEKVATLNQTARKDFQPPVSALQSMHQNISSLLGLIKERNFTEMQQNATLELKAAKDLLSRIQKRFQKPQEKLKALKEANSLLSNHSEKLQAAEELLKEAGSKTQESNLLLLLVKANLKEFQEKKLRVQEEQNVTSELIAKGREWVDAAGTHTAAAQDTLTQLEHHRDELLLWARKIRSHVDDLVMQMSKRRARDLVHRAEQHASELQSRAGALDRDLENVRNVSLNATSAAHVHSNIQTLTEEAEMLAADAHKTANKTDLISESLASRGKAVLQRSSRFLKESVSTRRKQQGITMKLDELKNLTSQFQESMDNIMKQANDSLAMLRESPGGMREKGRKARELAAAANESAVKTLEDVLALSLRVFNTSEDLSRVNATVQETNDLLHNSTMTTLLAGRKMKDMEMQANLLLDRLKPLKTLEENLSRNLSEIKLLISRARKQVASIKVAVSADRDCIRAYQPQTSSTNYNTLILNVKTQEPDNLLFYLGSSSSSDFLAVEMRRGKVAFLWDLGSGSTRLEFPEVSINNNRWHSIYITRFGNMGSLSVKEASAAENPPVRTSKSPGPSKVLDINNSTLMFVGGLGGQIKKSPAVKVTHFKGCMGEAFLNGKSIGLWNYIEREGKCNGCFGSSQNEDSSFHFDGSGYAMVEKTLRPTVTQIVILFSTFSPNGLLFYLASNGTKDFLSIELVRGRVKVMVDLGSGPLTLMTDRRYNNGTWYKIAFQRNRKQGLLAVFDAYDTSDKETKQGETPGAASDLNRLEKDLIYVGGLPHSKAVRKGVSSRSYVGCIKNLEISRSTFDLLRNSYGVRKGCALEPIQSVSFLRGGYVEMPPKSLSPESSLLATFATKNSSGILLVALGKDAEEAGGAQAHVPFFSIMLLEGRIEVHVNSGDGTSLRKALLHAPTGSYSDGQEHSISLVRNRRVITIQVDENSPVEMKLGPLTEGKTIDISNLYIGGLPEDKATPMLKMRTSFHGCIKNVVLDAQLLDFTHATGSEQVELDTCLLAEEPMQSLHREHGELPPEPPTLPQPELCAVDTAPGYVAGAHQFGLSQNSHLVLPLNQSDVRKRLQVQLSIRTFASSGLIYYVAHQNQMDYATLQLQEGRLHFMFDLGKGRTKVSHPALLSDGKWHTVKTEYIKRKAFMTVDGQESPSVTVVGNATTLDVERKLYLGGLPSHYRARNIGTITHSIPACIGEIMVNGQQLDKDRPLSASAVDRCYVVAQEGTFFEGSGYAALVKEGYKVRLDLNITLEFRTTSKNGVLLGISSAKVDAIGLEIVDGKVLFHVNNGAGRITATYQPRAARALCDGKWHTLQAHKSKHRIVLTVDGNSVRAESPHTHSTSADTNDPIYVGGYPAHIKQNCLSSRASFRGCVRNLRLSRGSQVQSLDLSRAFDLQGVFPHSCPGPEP

How the values were obtained:
[1] = system: melanoma cells, K-1735-M4; assay: Adhesion of melanoma cells to plastic coated with peptide AC15; type: cell-based, murine; details: K-1735-M4 cells, 120 minutes, 37° C., FIG. 10
[2] = molecular target: laminin (Mus musculus, UniProt P02468+P02469+P19137); assay: Inhibition of heparin binding to laminin coated on plastic by peptide AC15 in solution; details: peptide in solution 0.5 mg/ml to 5 μg/ml; laminin coated at 60 μg/ml; 3H-heparin 5 μg/ml; FIG. 8
[3] = Heparin binding to plastic plates coated with peptide AC15
[4] = system: Bovine aortic endothelial cells; assay: Inhibition of adhesion of bovine aortic endothelial cells to laminin by peptide AC15; type: cell-based; details: 15 min co-incubation with peptide, 20 min on laminin-coated wells (60 μg/ml), 37° C.; FIG. 12
[5] = system: melanoma cell line (M4); assay: Inhibition of adhesion of melanoma cells to laminin-coated plastic by peptide AC15 in solution; type: cell-based, murine; details: cells coincubated 20 min with peptide, then 20 min on laminin-coated wells; FIG. 11

RIQNLLKITNLRIKFVK [peptide AC15, RIQNLLKITNLRIKFVK]
melanoma cell adhesion to peptide-coated wells ([1]; various coating concentrations): increasing peptide concentrations produced a higher percentage of cell adhesion
coating concentration above which cell adhesion tends to plateau [1]: above 0.5 μg/ml
inhibition of binding of heparin to native laminin coated on plastic [2]: strong inhibitor of heparin binding to laminin
binding of 3H-heparin to coated peptide ([3]; peptide coated on 96-well plates, 50 to 0.025 μg/ml, 3H-heparin 10 μg/ml, 2 h, 37° C., FIG. 7): very potent binder of heparin
heparin binding strength relative to laminin ([3]; same coating concentrations, compared with past data obtained with the same methodology): 100 times
heparin binding strength relative to peptide F-9 ([3]; same coating concentrations, compared with past data obtained with the same methodology (Charonis et al. 1988)): at least 10 times
adhesion of endothelial cells to laminin-coated wells in the presence of peptide in solution [4]: involved in the phenomenon of endothelial cell adhesion
binding of melanoma cells to laminin-coated substrata in the presence of peptide in solution [5]: dramatically decrease the binding of melanoma cells to laminin-coated substrata
